Here are results for three compounds from publication PMC12344774, “Ferrocenyl Quinoline-Benzimidazole Hybrids: A Multistage Strategy to Combat Drug-Resistant Malaria” (Inorganic Chemistry, 2025).

Each structure is given as a SMILES string.

The test system of the data set is PfK1. The class given is cell-based, Plasmodium falciparum. Conditions: resistance index.
Regarding `CCN(CC)CCCC(C)Nc1ccnc2cc(Cl)ccc12` (stereo not drawn) [CQ, chloroquine, reference compound], the “RI (IC50 K1/IC50 NF54)” value stood at 11.3. Regarding `Cc1ccc2c(c1)nc(-[c-]1cccc1CN(C)C)n2CCNCCNc1ccnc2cc(Cl)ccc12.[Fe+2].c1cc[cH-]c1` (stereo not drawn) [Complex C4, N1-(7-Chloroquinolin-4-yl)-N2-(2-(5-methyl-2-(2-N,N-dimethylaminomethyl)ferrocenyl-1H-benzo[d]imidazole-1-yl)ethyl)ethane-1,2-diamine], the “RI (IC50 K1/IC50 NF54)” value is given as 4.5. As for `CN(C)Cc1ccc[c-]1CNc1ccnc2cc(Cl)ccc12.[Fe+2].c1cc[cH-]c1` (stereo not drawn) [FQ, ferroquine, reference compound], the “RI (IC50 K1/IC50 NF54)” value was determined as 1.20.
